Taken from: PubChem BioAssay AID1259254 (NCATS, 2017)
Purpose: 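Genome-wide screen for genes that prevent DNA re-replication in cancer cells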 (primary screen). Cell system: human HCT116 colorectal cancer cells. Knock-down reagent: single siRNA against human genes. Duration: 3 days. Detection: 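Imaged Hoechst DNA stain sorts each cell into a cycle phase by DNA amount; per plate, G2 fraction set to 0% for non-targeting and 100% for GMNN siRNA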. Direction: G2 robust z-score: higher = more G2 cells, more excess DNA replication. Active means: 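An siRNA counts as active if its G2 robust z-score lies at least 5 MADs above the screen median; here such calls match roughly 38% of GMNN control or more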.
Here is an unselected part of about 59,000 deposited reagents. About 1,550 of them (2.6%) count as active. 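G2 share is only a proxy for re-replication; each gene was hit by three separate siRNAs, and active genes were retested.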 A number with no mark means an inactive call. Not all columns of the deposit are shown. Not stated in the record: the amount of reagent.

G2 robust z-score, by target and reagent
HIBCH (GeneID 26275): SID160730927 0.387; SID160737891 -0.0604; SID160737893 2.6
CEP83 (GeneID 51134): SID160740152 -0.0272; SID160740153 2.21; SID160740154 0.414
SIGLEC8 (GeneID 27181): SID160738521 0.603; SID160738522 -0.887; SID160738523 0.0601
MYOD1 (GeneID 4654): SID160777733 0.826; SID160777735 -0.234; SID160777736 -1.19
WDR11 (GeneID 55717): SID160744166 0.0485; SID160744167 0.381; SID160744168 -0.891
TOP2B (GeneID 7155): SID160714417 -0.131; SID160714515 0.126; SID160714618 1.03
PKD1 (GeneID 5310): SID160714379 -0.933; SID160714380 -0.474; SID160714381 -0.515
MRPL21 (GeneID 219927): SID160761395 -1.22; SID160761396 -0.318; SID160761397 -0.682
KRIT1 (GeneID 889): SID160737620 0.732; SID160737632 2.89; SID160737642 0.0645
CDC16 (GeneID 8881): SID160721046 3.73; SID160721048 3.98; SID160721049 1.41
SMIM10 (GeneID 644538): SID160769237 -0.847; SID160769238 1.02; SID160769239 0.614
UBC (GeneID 7316): SID160718509 1.14; SID160718511 1.17; SID160718512 6.47 (active)
PWWP3A (GeneID 84939): SID160752992 1.85; SID160752994 1.77; SID160752995 4.6
COX18 (GeneID 285521): SID160763632 3.28; SID160763634 -0.455; SID160763635 0.0296
MPDZ (GeneID 8777): SID160720780 -0.629; SID160720781 -0.451; SID160720782 0.619
C1RL (GeneID 51279): SID160740480 0.108; SID160740481 1.87; SID160740482 -0.831
LYLDT1 (GeneID 121273): SID160755878 -0.996; SID160755879 2.75; SID160755880 -0.251
AGAP1P1 (GeneID 126860): SID160724789 -0.165; SID160732426 -0.257; SID160756550 -0.519
GSTA5 (GeneID 221357): SID160761662 -0.104; SID160761663 -0.368; SID160761664 -0.949
LOC648570 (retired record) (GeneID 648570): SID160734062 0.486; SID160770309 -0.555; SID160770310 -1.01
UBE3A (GeneID 7337): SID160718554 -0.728; SID160718555 1.24; SID160718556 -0.186
SENP2 (GeneID 59343): SID160747006 0.111; SID160747007 0.471; SID160747008 -0.475
NME1 (GeneID 4830): SID160731294 -0.457; SID160778104 5.81 (active); SID160778105 -0.715
BLK (GeneID 640): SID160727215 0.132; SID160727281 -0.374; SID160727354 -0.199
PCDH1 (GeneID 5097): SID160713897 1.06; SID160713898 -0.624; SID160713899 -0.547
VMO1 (GeneID 284013): SID160725002 -0.407; SID160732960 -0.904; SID160763115 -0.414
SUPT3H (GeneID 8464): SID160720102 0.236; SID160720104 1.56; SID160735107 -0.874
CIB3 (GeneID 117286): SID160755579 -1.32; SID160755580 -0.0432; SID160755581 1.06
USP50 (GeneID 373509): SID160765236 -0.54; SID160765237 1.3; SID160765238 0.192
